PubChem BioAssay AID485353 (National Center for Advancing Translational Sciences (NCATS), 2010)
The whole screen tested about 330,000 compounds, of which about 610 (0.18%) were called active. This list was built around the results that the source calls inconclusive (neither active nor inactive); the mix of calls is not that of the screen. Calls follow the shape of the full dose curve. Potencies of inconclusive entries are doubtful fits and often do not repeat. Some compounds were tested as several samples or in several runs, with calls that do not always agree.

Assay: qHTS of Yeast-based Assay for SARS-CoV PLP; also: nearly all actives have a fitted effect of over 55% in size; as to activity, positive = growth rescue: 0% is about no effect
Details: S. cerevisiae expressing SARS-CoV PLpro; Potency: growth rescue; activity, positive = growth rescue: at 32.9 µM (top of the series)
Potency is read from the fitted curve at half-maximal effect.

| SMILES | Potency | activity, positive = growth rescue |
| --- | --- | --- |
| O=C(c1ccc(S(=O)(=O)N2CCOCC2)cc1)N(c1ccccc1)C1C=CS(=O)(=O)C1 (stereo unspecified) | inconclusive: 3.98 µM [activator, single point] | – |
| Cc1ccc(NC(=O)CCn2cccc2)cc1Cl | – | inactive: -9.84% |
| O=C(Oc1ccc(Cl)c2ccccc12)N1CCCCC1 | inconclusive: 3.98 µM [activator, single point] | – |
| O=[N+]([O-])c1cccc(CN2CCCCCC2)c1 | – | inactive: 8.15% |
| N#Cc1ccsc1NC(=O)CSc1ncn[nH]1 | – | inactive: 2.03% |
| O=C(CSc1nc2ccccc2n1CC(=O)N1CCCC1)Nc1ccc2c(c1)OCO2 | – | inactive: 1.45% |
| Oc1c(CNc2ccccc2)cc(COCc2ccccc2)c2cccnc12 | active: 4.47 µM | – |
| Cc1cc(C)nc(SCc2ccc(C(=O)N/N=C/c3cccc(O)c3O)cc2)n1 | active: 3.16 µM | – |
| CCOc1ccccc1Oc1ccc(C(F)(F)F)cn1 | inconclusive: 12.6 µM [activator, single point] | – |
| CCOC(=O)C(C)/C(C)=N/NC(=O)c1cc2ccccc2cc1O (stereo unspecified) | inconclusive: 2.51 µM [activator, partial curve] | – |
| CCCCN1C(=O)C(CC(=O)NCC)SC1=Nc1ccccc1 (stereo unspecified) | inconclusive: 22.4 µM [activator, single point] | – |
| Cn1c(-c2ccccc2)cnc1SCC(N)=O | inconclusive: 20 µM [activator, single point] | – |
| O=C(c1cccc(-c2ccccc2)c1)N1CC[C@@H](N2CCC(O)CC2)[C@H](O)C1 | inconclusive: 10 µM [activator, single point] | – |
| NC(=S)N/N=C/c1ccc2ccccc2c1 | active: 5.62 µM | – |
| COc1ccc(-c2cc3c(=O)n(CC(=O)Nc4ccc(Cl)cc4)nc(C)n3n2)cc1 | inconclusive: 4.47 µM [activator, single point] | – |
| CC(=O)N(CCc1ccccc1C)Cc1cc2cc3c(cc2[nH]c1=O)OCO3 | active: 11.2 µM | – |
| O=C(CCc1nnc2n(Cc3ccc(F)cc3)c(=O)c3ccccc3n12)NCCN1CCOCC1 | inconclusive: 2.24 µM [activator, partial curve] | – |
| CCCc1nnc(NC(=O)CCC(=O)NC2CCCC2)s1 | – | inactive: 4.66% |
| O=C(CNC(=S)N(Cc1ccccc1)Cc1cccs1)NCc1ccc(F)cc1 | – | inactive: -5.66% |
| O=C(N/N=C/c1cc2c3c(c1O)CCCN3CCC2)c1ccccc1O | active: 2.82 µM | – |
| Cc1nn(-c2ccccc2)c(C)c1NC(=O)COc1ccc(C#N)cc1 | inconclusive: 22.4 µM [activator, partial curve] | – |
| Cc1ccc(S(=O)(=O)Cc2ccc(C(=O)N3CCN(c4cccc(C)c4C)CC3)o2)cc1 | – | inactive: -6.93% |
| Cc1ccc(C2(C)NC(=O)N(CC(=O)Nc3nc(-c4ccccn4)cs3)C2=O)cc1 (stereo unspecified) | – | inactive: -0.215% |
| O=C(NC(=S)Nc1ccccn1)c1cncc(Br)c1 | – | inactive: 17.2% |
| S=C(NC1CCCCC1)N1CCOCCOCCN(C(=S)NC2CCCCC2)CCOCC1 | – | inactive: 11.2% |
| COc1ccc(/C=N/NC(N)=S)cc1OC(=O)c1ccccc1 | active: 11.2 µM | – |

| SMILES | Potency | activity, positive = growth rescue |
| --- | --- | --- |
| O=C(CNc1n[nH]c(=O)[nH]c1=O)N/N=C/c1cccnc1 | inconclusive: 22.4 µM [activator, partial curve] | – |
| Cc1ccc(C(=O)Nc2ccc(N3CCCCC3)cc2)cc1 | – | inactive: 4.72% |
| O=C(Nc1ccccc1)O/N=C/c1ccccc1Cl | inconclusive: 14.1 µM [activator, partial curve] | – |
| CCOC(=O)c1cnn(Cc2ccccc2)c1N | inconclusive: 20 µM [activator, single point] | – |
| Cc1nc2ccc(NC(=O)Cc3cccs3)cc2s1 | – | inactive: 1.86% |
| COc1ccc(-c2nnc(SCC(=O)Nc3cc(S(=O)(=O)N4CCCCC4)ccc3Cl)n2N)cc1 | inconclusive: 22.4 µM [activator, single point] | – |
| O=C(O[C@@H]1Cc2c(O)cc(O)cc2O[C@@H]1c1cc(O)c(O)c(O)c1)c1cc(O)c(O)c(O)c1 | inconclusive: 7.08 µM [activator, partial curve] | – |
| O=C(CSc1ncnc2[nH]ncc12)Nc1nc(-c2ccc(F)c(F)c2)cs1 | – | inactive: -6.06% |
| O=C(NC1CCCCC1)/C(=N\O)c1ccccn1 | inconclusive: 20 µM [activator, single point] | – |
| Cc1ccc(C2=C(CC(=O)O)C(=O)CC2)cc1 | – | inactive: -8.44% |
| O=C1NN(c2cccc(Br)c2)C(=O)/C1=C\c1ccc(N2CCOCC2)cc1 | – | inactive: 0.506% |
| COc1ccc(/C=N/Nc2nnc(-c3ccccc3)c(=O)[nH]2)cc1 | – | inactive: -5% |
| CC(=O)N1c2ccc(S(=O)(=O)NCC3CCC(C(=O)N4CC(C)CC(C)C4)CC3)cc2CC1C (stereo unspecified) | inconclusive: 3.16 µM [activator, single point] | – |
| CCCCc1nc(N)c(C#N)c(-c2ccco2)c1CCC | inconclusive: 0.398 µM [activator, full curve, poor fit] | – |
| O=C(CSc1ccc(-c2ccccn2)nn1)Nc1ccc(F)c(F)c1 | inconclusive: 0.891 µM [activator, full curve] | – |
| CC(C)=CCCC(C)NC(=O)NC1CCCCC1 (stereo unspecified) | inconclusive: 4.47 µM [activator, single point] | – |
| N#Cc1c(-c2cccc(Br)c2)cc(-c2cccnc2)nc1N | inconclusive: 2.82 µM [activator, full curve] | – |
| O=C(CN1CCCCC1)c1ccc(OC(F)F)cc1 | inconclusive: 4.47 µM [activator, single point] | – |
| Cc1cc(C)cc(N=Cc2[nH]c3ccc(Br)c(Cl)c3c2O)c1 | inconclusive: 3.98 µM [activator, single point] | – |
| Cn1c(Cn2c(=O)sc3ccccc32)nnc1SCC(=O)Nc1ccc(Cl)cc1 | inconclusive: 17.8 µM [activator, single point] | – |
| CCCCn1c(=O)[nH]c(=O)c2c1ncn2Cc1ccco1 | – | inactive: 7.97% |
| CCOC(=O)Cn1c(=O)c2c(nc(N3CCCCC3)n2Cc2ccccc2)n(C)c1=O | – | inactive: 12.1% |
| NC(=S)N/N=C/c1ccccc1 | active: 2.51 µM | – |
| CC(Oc1cccc(Cl)c1)C(=O)Nc1cc(S(=O)(=O)N2CCOCC2)ccc1N1CCCCC1 (stereo unspecified) | – | inactive: 4.82% |
| O=C(c1ccccc1[N+](=O)[O-])N1CCC(Cc2ccccc2)CC1 | inconclusive: 22.4 µM [activator, partial curve, poor fit] | – |

Reprinted at random: two compounds from above.

| SMILES | Potency | activity, positive = growth rescue |
| --- | --- | --- |
| O=C1NN(c2cccc(Br)c2)C(=O)/C1=C\c1ccc(N2CCOCC2)cc1 | – | inactive: 0.506% |
| CC(C)=CCCC(C)NC(=O)NC1CCCCC1 (stereo unspecified) | inconclusive: 4.47 µM [activator, single point] | – |
